{"sequences": {"note": "The chains behind the UniProt entries cited, without tags or fusion partners.", "UniProt P19474": "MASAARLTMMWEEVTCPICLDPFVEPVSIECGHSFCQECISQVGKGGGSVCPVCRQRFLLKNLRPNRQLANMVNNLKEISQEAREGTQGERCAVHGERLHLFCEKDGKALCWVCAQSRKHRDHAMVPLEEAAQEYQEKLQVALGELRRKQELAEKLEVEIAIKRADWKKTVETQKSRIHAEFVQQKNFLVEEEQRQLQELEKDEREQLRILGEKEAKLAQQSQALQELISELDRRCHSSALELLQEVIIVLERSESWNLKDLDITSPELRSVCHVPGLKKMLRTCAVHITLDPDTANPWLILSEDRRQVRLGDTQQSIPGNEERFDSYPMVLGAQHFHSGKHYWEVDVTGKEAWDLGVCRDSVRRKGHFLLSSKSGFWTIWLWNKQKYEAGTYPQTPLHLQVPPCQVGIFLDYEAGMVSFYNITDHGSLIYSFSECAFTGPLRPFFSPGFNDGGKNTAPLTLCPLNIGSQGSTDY"}, "source": "paper PMC12889043", "biological_target": "T1, Flag-tagged full-length human RND3 (pcDNA3.1-Flag-hRND3) (human) (UniProt P61587)", "T1 sequence": "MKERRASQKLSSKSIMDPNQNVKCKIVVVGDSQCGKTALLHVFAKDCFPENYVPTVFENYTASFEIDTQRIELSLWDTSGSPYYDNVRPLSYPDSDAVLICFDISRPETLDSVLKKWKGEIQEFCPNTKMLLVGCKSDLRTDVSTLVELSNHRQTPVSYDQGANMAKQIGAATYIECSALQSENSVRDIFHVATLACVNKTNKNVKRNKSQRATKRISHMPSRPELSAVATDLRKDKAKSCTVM", "test": "affinity purification with mass spectrometry; HEK293T transfected with Flag-hRND3 (2 μg), 24 h; immunoprecipitation from lysate, interacting proteins analysed by mass spectrometry", "note": "Results are given in words; binding and its absence hold for the method and conditions named. Binding seen in cells or lysates may run through a third protein. Here binding means that the protein was enriched with, or labelled near, the bait; the list need not be complete. Where a sequence is shown, tags or fusion partners need not be part of it.", "data": [{"substance": "endogenous TRIM21 (from UniProt P19474 1-475)", "values": [{"measurement": "binding", "result": "binds"}]}]}
